Structures can show the parent of a compound that is named as a salt. The list shows a part of the results. Many values rest on one well or one pass, so single values are uncertain.

The assay deals with M249P (parental melanoma line). In words: reduction in cell viability relative to untreated/vehicle; higher = more growth inhibition. The conditions noted are these: 200 nM; 72 h.
In the case of `Nc1ccccc1NC(=O)c1ccc(CNc2nccc(-c3cccnc3)n2)cc1` [Mocetinostat], the “reduction in cell viability” value is less than 0%.
For `O=C1c2c(O)cc(O)cc2OC(c2ccc(O)c(O)c2)C1O` (centres undefined) [Taxifolin] the value was less than 0%; for `CS(=O)(=O)Oc1ccc2c(NC(N)=O)c(C(=O)c3ccc(Cl)cc3Cl)oc2c1` [Lirimilast], less than 0%.
For `CC1CNc2c(cccc2S(=O)(=O)N[C@@H](CCCNC(=N)N)C(=O)N2CC[C@@H](C)C[C@@H]2C(=O)O)C1` (some centres undefined) [Argatroban], the “reduction in cell viability” value is less than 0%.
For the compound `NC(=O)c1ncn([C@@H]2O[C@H](CO)[C@@H](O)[C@H]2O)n1` [Ribavirin], the “reduction in cell viability” value is less than 0%.
Turning to `CC(C)C[C@H](NC(=O)[C@@H](O)[C@H](N)Cc1ccccc1)C(=O)O` [Ubenimex], the “reduction in cell viability” value is less than 0%.
In the case of `O=C(NCc1ccccc1)[C@H](Cc1ccccc1)NC(=O)[C@H]1O[C@@H]1C(=O)NCCc1ccc(O)cc1`, the “reduction in cell viability” value was less than 0%.
For the compound `Cc1c(C(=O)NN2CCCCC2)nn(-c2ccc(Cl)cc2Cl)c1-c1ccc(Cl)cc1` [Rimonabant], the “reduction in cell viability” value was less than 0%.
With `CC1(C)NC(=O)N(c2ccc([N+](=O)[O-])c(C(F)(F)F)c2)C1=O` [Nilutamide], the “reduction in cell viability” value was less than 0%.
Take `Cc1csc(-c2nnc(Nc3ccc(Oc4ncccc4-c4ccnc(N)n4)cc3)c3ccccc23)c1`: the “reduction in cell viability” value stood at 8.02%.
As for `c1cc(-c2sc(-c3ccncc3)c(-c3ccncc3)c2-c2ccncc2)ccn1`, the “reduction in cell viability” value is less than 0%.
The result for `c1ccc(CNc2nc(NCc3ccccc3)c3ccccc3n2)cc1` reads less than 0%.
Regarding `O=C1NC(=O)/C(=C/c2ccc(-c3ccc(F)cc3O)o2)S1`, the “reduction in cell viability” value was less than 0%.
On to `CC(=O)OCC(=O)[C@@]12N=C(C)O[C@@H]1C[C@H]1[C@@H]3CCC4=CC(=O)C=C[C@]4(C)[C@H]3[C@@H](O)C[C@@]12C` [Deflazacort], for which the “reduction in cell viability” value was less than 0%.
For the compound `CN(N=O)C(=O)N[C@@H](C=O)[C@@H](O)[C@H](O)[C@H](O)CO` [Streptozocin], the “reduction in cell viability” value was less than 0%.
Take `C=CC(=O)Nc1cccc(Oc2nc(Nc3ccc(N4CCN(C)CC4)cc3OC)ncc2Cl)c1`: the “reduction in cell viability” value is less than 0%.
Consider `COc1c(C)c2c(c(O)c1C/C=C(\C)CCC(=O)OCCN1CCOCC1)C(=O)OC2` [Mycophenolate mofetil], for which the “reduction in cell viability” value is less than 0%.
With `CN1C(=O)C[C@@H](C(=O)N[C@@H](Cc2c[nH]cn2)C(=O)N2CCC[C@H]2C(N)=O)NC1=O` [Taltirelin], the “reduction in cell viability” value is less than 0%.
The result for `CCC(C)N(C)C(=O)c1cc2ccccc2c(-c2ccccc2Cl)n1` (centres undefined) reads less than 0%.
With `COc1cccc(-c2ccc(NC(=O)C3=C(C(=O)O)CCC3)c(F)c2)c1` [Vidofludimus], the “reduction in cell viability” value was less than 0%.
On to `CCOCC(O)COc1ccc(NC(=O)CC[S+](C)C)cc1` (centres undefined) [Suplatast tosilate], for which the “reduction in cell viability” value is less than 0%.
For the compound `CCN(C(=O)c1c(O)c2c(Cl)cccc2n(C)c1=O)c1ccccc1` [Laquinimod], the “reduction in cell viability” value was less than 0%.
On to `CC[C@H]1OC(=O)[C@H](C)[C@@H](O[C@H]2C[C@@](C)(OC)[C@@H](O)[C@H](C)O2)[C@H](C)[C@@H](O[C@@H]2O[C@H](C)C[C@H](N(C)C)[C@H]2O)[C@](C)(O)C[C@@H](C)C(=O)[C@H](C)[C@@H](O)[C@]1(C)O` [Erythromycin], for which the “reduction in cell viability” value was less than 0%.
`CN(C)Cc1cccc(N=C(c2ccccc2)c2c(O)[nH]c3cc(C(=O)N(C)C)ccc23)c1`: the “reduction in cell viability” value was less than 0%.
Consider `COc1ccc(-c2ccc3ncc4c(c3c2)n(-c2ccc(N3CCNCC3)c(C(F)(F)F)c2)c(=O)n4C)cn1`, for which the “reduction in cell viability” value is 91.4%.
Regarding `COc1c(OCCCN2CCOCC2)ccc2c1N=C(NC(=O)c1cnc(N)nc1)N1CCN=C21`, the “reduction in cell viability” value was less than 0%.
For `COc1cc(C(=O)NC2CCN(C)CC2)ccc1Nc1ncc2c(n1)N(C1CCCC1)CCC(=O)N2C(C)C` the value was less than 0%.
The result for `CN1CCC(=C2c3ccccc3C=Cc3ccccc32)CC1` [Cyproheptadine hydrochloride] reads less than 0%.
In the case of `CC[C@@]1(O)C(=O)OCc2c1cc1n(c2=O)Cc2cc3cc(O)ccc3nc2-1` [10-hydroxycamptothecin], the “reduction in cell viability” value is 25.8%.
With `Nc1nc(-c2nn(Cc3ccccc3F)c3ncccc23)nc(N)c1N1CCOCC1`, the “reduction in cell viability” value was less than 0%.
Take `CS(=O)(=O)Nc1ccc([N+](=O)[O-])cc1Oc1ccccc1` [Nimesulide]: the “reduction in cell viability” value was less than 0%.
In the case of `CC(C)[N+]1(C)[C@@H]2CC[C@H]1C[C@@H](OC(=O)C(CO)c1ccccc1)C2` (some centres undefined) [Ipratropium bromide hydrate], the “reduction in cell viability” value is less than 0%.
For the compound `CCCCCNC(=N)N/N=C/c1c[nH]c2ccc(OC)cc12` [Tegaserod maleate], the “reduction in cell viability” value was less than 0%.
The result for `COc1ccc2c(c1)c(CC(=O)O)c(C)n2C(=O)c1ccc(Cl)cc1` [Indomethacin] reads less than 0%; that for `C[C@H](NC(=O)c1sccc1OCc1ccc(Cl)cc1)c1ccccc1`, less than 0%.
For `CN(C)CCN1C(=O)c2cccc3cc(N)cc(c23)C1=O` [Amonafide], the “reduction in cell viability” value was less than 0%.
Turning to `CCCn1c(=O)c2nc(C34CC5CC(CC3C5)C4)[nH]c2n(CCC)c1=O` [Rolofylline], the “reduction in cell viability” value was less than 0%.
`CNC(C)C1CCC(N)C(OC2C(N)CC(N)C(OC3OCC(C)(O)C(NC)C3O)C2O)O1` (centres undefined) [Gentamycin sulfate]: the “reduction in cell viability” value was less than 0%.
For `CCCCCCNC(=O)n1cc(F)c(=O)[nH]c1=O` [Carmofur], the “reduction in cell viability” value is less than 0%.

Values taken from the supplement of paper PMC9015667.
